# Test results taken from the supplement of paper PMC3334620.
# The full ranking holds about 33,000 sequences; the median of “E-score (-0.5 to 0.5)” is about -0.015, and the highest 2% start at about 0.3. Some of the results follow.
# Target: T1, Abf1 (UniProt P14164)
# T1 sequence: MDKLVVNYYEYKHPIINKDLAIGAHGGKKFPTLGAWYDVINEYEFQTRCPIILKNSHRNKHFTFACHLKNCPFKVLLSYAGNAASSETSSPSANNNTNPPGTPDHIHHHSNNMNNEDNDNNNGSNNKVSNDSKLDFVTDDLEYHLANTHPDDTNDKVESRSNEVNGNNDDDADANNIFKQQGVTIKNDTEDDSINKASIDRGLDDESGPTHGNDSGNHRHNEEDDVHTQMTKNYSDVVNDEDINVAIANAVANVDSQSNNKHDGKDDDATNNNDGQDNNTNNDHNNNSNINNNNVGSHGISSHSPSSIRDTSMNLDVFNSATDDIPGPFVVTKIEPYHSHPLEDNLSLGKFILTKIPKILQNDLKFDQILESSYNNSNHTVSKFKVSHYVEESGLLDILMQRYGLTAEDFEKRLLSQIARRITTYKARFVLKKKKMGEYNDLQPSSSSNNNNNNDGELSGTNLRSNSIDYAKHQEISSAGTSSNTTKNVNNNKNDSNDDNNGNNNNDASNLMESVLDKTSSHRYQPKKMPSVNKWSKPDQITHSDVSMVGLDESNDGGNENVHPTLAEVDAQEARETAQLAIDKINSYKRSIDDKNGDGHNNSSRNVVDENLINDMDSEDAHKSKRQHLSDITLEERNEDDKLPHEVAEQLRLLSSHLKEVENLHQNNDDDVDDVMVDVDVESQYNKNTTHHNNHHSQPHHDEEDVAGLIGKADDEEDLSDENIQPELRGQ
# Assay: PBM E-score (8-mer binding enrichment) (E-score (-0.5 to 0.5)); higher = stronger / more preferred TF binding
# Settings: protein concentration: 200 nM; construct: GST-full length
# Outline: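 Bound GST-tagged yeast transcription factors, applied at about 100-200 nM to double-stranded universal all-10-mer Agilent arrays, were detected with fluorescent anti-GST. Scans were normalised with masliner. A modified Wilcoxon-Mann-Whitney statistic, the E-score, was assigned to each ungapped eight-base word pooled with its reverse complement by the Universal PBM Analysis Suite.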
row,Sequence,PBM E-score
1,CCTTCGCC,-0.199
2,ATGCTCAC,0.0338
3,TAGGTAAA,-0.226
4,CGGGTCGC,-0.133
5,TGTAGAAA,0.00325
6,TCTCATAA,-0.0621
7,CAATTTAG,0.0307
8,AAGTCTAA,-0.136
9,TGCTACAA,0.077
10,AGCTTCCC,-0.162
11,AACCACTT,-0.0232
12,CCGGATTC,-0.228
13,CTCCTACA,-0.194
14,AACCTGGA,-0.0808
15,CCCCTCAG,-0.292
16,CATACAAC,-0.0666
17,AAACGGTG,0.129
18,AAACAATT,0.0212
19,CTTAATGC,0.133
20,CGGTATAG,-0.191
21,CATCCTTC,0.0215
22,TACGCCCA,-0.15
23,GGACGGCC,0.143
24,AGGGGAGC,-0.294
25,CACCGGAG,-0.23

row,Sequence,PBM E-score
1,ACAAACCC,-0.0208
2,AACAATAT,0.187
3,CTAATTAA,0.155
4,CAAAGTCA,0.00908
5,AGATGCAC,0.0654
6,CTATTCGA,-0.0482
7,CTTGCCGC,-0.26
8,GAAGCTTC,-0.121
9,AAAAATGC,0.12
10,GGTTAGCA,-0.18
11,GAATTCAA,-0.0191
12,CCGAGGTA,-0.0623
13,GGCATCCA,-0.117
14,GTGGAGCA,0.00893
15,AGCCTTAA,-0.113
16,AGGAGATC,0.00894
17,AACAAGTG,0.018
18,AAGGGTAC,0.0349
19,AAGCATTG,-0.0436
20,GAACGGAC,-0.0561
21,AGGAAGCC,-0.326
22,CGACCCAC,-0.117
23,AATCTTCA,0.166
24,CAGCACTA,0.189
25,AGTATTCC,0.018

row,Sequence,PBM E-score
1,GCTCCGAA,-0.07
2,ACACTGAT,-0.0432
3,GTGTTTGA,0.0823
4,AAGTATTG,0.0723
5,GGAGCCGA,-0.204
6,CCCAGTTC,-0.0526
7,TATTTGCA,0.128
8,TGTCCACA,0.00735
9,ACTATTTA,0.215
10,AATCCGCG,0.0253
11,CGATCGAA,0.0567
12,ATGGCGCA,-0.0293
13,AGCCGGGG,-0.337
14,CCTACCCG,-0.194
15,GAGTAGTA,0.0591
16,CCAGTACC,-0.00204
17,CACATAGC,-0.0461
18,CAATGGCA,-0.0412
19,AGCTATGC,-0.237
20,AACTATCC,-0.035
21,AATTCTGT,-0.144
22,GCCGAACC,-0.0821
23,GGTGGGAC,-0.143
24,AACAATTA,0.17
25,CATCTGAC,-0.152

row,Sequence,PBM E-score
1,CTACTTAC,0.0358
2,CTACGCAC,0.121
3,ATTACACC,-0.0602
4,CGTTACAC,0.298
5,GCGTTTCA,-0.0687
6,CCCTTGGA,0.0783
7,CCAGCGTA,-0.149
8,ACTGAAAG,0.0169
9,GGTGTCCA,0.0417
10,AAGCTGCG,-0.177
11,CGGGCATA,-0.00822
12,CGTTTGGA,0.0402
13,CTTTGGCC,-0.0649
14,TAACCGGA,-0.167
15,CACTACAC,0.185
16,GTGGTTCA,0.117
17,ACCTTGAT,0.102
18,TGATGTAA,0.145
19,AATGAGAC,-0.136
20,TCAACCAA,-0.0646
21,GTTAGAAC,0.186
22,AGCTCGGG,0.00146
23,ATTACGTA,0.372
24,GAGTAAAC,-0.0509
25,AGTACCAG,-0.0715

row,Sequence,PBM E-score
1,ACCTCTGC,-0.0641
2,GGACGTGA,0.0158
3,AGTCTGTG,-0.122
4,AATGCTTC,0.124
5,GCGATGTA,0.095
6,AATCAGTA,0.0404
7,CTTTTTTA,-0.023
8,CAACATAG,-0.0991
9,CAAACCTA,0.0828
10,AGCATTCC,-0.0268
11,ACTGTGAG,-0.163
12,GCTTACCA,0.113
13,CTATCACA,0.199
14,TGATATCA,0.34
15,ATTATGCG,0.303
16,ATAGGATC,0.0238
17,TTACCGAA,0.0303
18,ACCTACTA,0.0118
19,ACCGCCCA,-0.0567
20,AAGAGACA,0.0212
21,AACAGGGC,-0.135
22,GCGTCTCA,-0.0766
23,GCGAACAA,0.0737
24,CCGGGGTA,-0.201
25,CCAGGGGG,-0.287

row,Sequence,PBM E-score
1,AATGTGGG,-0.151
2,ACTGGCCC,-0.0406
3,AACCAAAG,0.0516
4,CCACGGCC,0.0158
5,CTCAAATC,0.0736
6,ATTCTGGC,-0.0296
7,AAAGAAAC,0.114
8,GATCCAGC,-0.228
9,AAAAATCC,-0.0226
10,CAGCGAGA,-0.194
11,CCACGTAC,0.186
12,ATGAGCAC,-0.0749
13,ACGTGAAG,0.0955
14,CGGGGAAG,-0.248
15,AGCTATAA,0.0303
16,CTAAAGAC,-0.137
17,ATCGTTCA,0.286
18,AGATATAA,0.222
19,CTTTTTCA,0.0411
20,CCAAGACC,-0.253
21,CCCTAAGA,-0.119
22,ACTGATTG,-0.0923
23,AGGGAACG,0.106
24,AACCTATT,-0.155
25,CCATGATC,0.0339

row,Sequence,PBM E-score
1,ACCTGGCG,-0.112
2,TCAGTGAA,-0.0379
3,ATCCACCC,0.00764
4,GCTAGGGA,-0.235
5,CAACTGCC,0.00299
6,GGCCTAAC,0.00251
7,AGCCGCCG,-0.0745
8,AACACCTG,-0.0199
9,ATACTGAA,0.106
10,AAGGAACG,0.0004
11,ATCATACG,0.315
12,AGAACATA,0.0935
13,ACTTCAGG,-0.0164
14,CATACTGG,0.0239
15,GTTCTGTA,-0.0186
16,ATACGAGC,0.277
17,CATGCTGA,-0.0653
18,CAACGCCA,-0.171
19,TTCCCAAA,0.0671
20,ACGTGCGC,0.0786
21,TAAAAAGA,-0.00289
22,GCCCTATA,0.0326
23,ATCCGGCC,-0.0222
24,CTTGACAC,-0.0997
25,ATGTGTAA,0.0133

row,Sequence,PBM E-score
1,CAGTGCGC,-0.282
2,GAACATCA,0.246
3,GCTCGTCC,0.0926
4,ACGACGAC,0.292
5,GAGTTAAC,-0.0338
6,CCAGGCGC,-0.195
7,CGTGATTA,0.248
8,AGGCTATG,-0.0835
9,CTGGAACC,-0.144
10,AACCAGCT,0.192
11,AGTCAGAT,0.0195
12,CTTAACGC,-0.101
13,ACCCCAGG,-0.3
14,CCAATGGA,-0.107
15,CAGCTGGC,-0.209
16,GAAGCATC,-0.0613
17,CGTTGACC,0.0177
18,ACCGCAGA,-0.134
19,GCTTATAA,0.0527
20,AGATCAAT,0.12
21,AGGTCTAT,-0.0302
22,TCTCGAGA,0.302
23,GATCTAGC,0.0373
24,CCGATAAG,-0.0762
25,AATTTGAA,0.0915

# Retrieved one by one from the entries so far (6):
row,Sequence,PBM E-score
9,AAAAATGC,0.12
22,GCCGAACC,-0.0821
8,GATCCAGC,-0.228
19,AAGCATTG,-0.0436
11,CGGGCATA,-0.00822
12,GCTTACCA,0.113

# (further entries)

row,Sequence,PBM E-score
1,AGCCGAGG,-0.146
2,CTATATGC,0.00873
3,CGACGCTA,0.137
4,AACATACT,0.19
5,TAACACCA,0.0537
6,CATAAGCA,-0.13
7,ACATGTTA,0.112
8,CTAGTATC,0.0503
9,GATTGAAA,0.0603
10,ACATTATG,0.182
11,AGGTGTGC,-0.199
12,AGCCTTAG,-0.217
13,CCCGTGCA,0.0856
14,CCTCAGAG,-0.357
15,GTCCCAGA,-0.0431
16,CGAACATC,0.12
17,AGTCTGGC,-0.191
18,TACGCGCA,0.0188
19,ACGACAGT,0.236
